From the supplement of paper PMC4683952
Counter-ions that a name gives are not always drawn. The list shows a part of the results. Cut-off read from the data, not from the text of the source: active = 2.5 or more and inactive = the rest. Single values are uncertain here, since repeats match poorly.

System: Lgr5 (MarsCy1-Lgr5-EGFP, U2OS)
Assay: cell-surface Lgr5 expression (SCi1 fluorescence, background-subtracted) relative to WT control (fold of WT control); higher = more Lgr5 at the plasma membrane
Conditions: U2OS MarsCy1-Lgr5-EGFP stable; treatment time: overnight; library: Prestwick; 20 µM

SMILES	cell-surface Lgr5 expression
CN1C(C)(C)CCCC1(C)C [Pempidine tartrate]	inactive: 1.18
Cc1onc(-c2c(Cl)cccc2Cl)c1C(=O)N[C@@H]1C(=O)N2[C@@H]1SC(C)(C)[C@@H]2C(=O)O [Dicloxacillin sodium salt]	inactive: 0.0712
CN(C)/N=N/c1[nH]cnc1C(N)=O [Dacarbazine]	active: 3.38
CC[N+](C)(C)Cc1ccccc1Br [Bretylium tosylate]	inactive: 1.63
C[N+](C)(C)CCCCCC[N+](C)(C)C [Hexamethonium dibromide dihydrate]	inactive: 1.32
O=C(O)c1cccnc1Nc1cccc(C(F)(F)F)c1 [Niflumic acid]	inactive: 1.26
Cc1oncc1C(=O)Nc1ccc(C(F)(F)F)cc1 [Leflunomide]	inactive: 1.85
COc1ccc(C(Cl)=C(c2ccc(OC)cc2)c2ccc(OC)cc2)cc1 [Chlorotrianisene]	inactive: 1.91
CC(CCc1ccccc1)NCC(O)c1ccc(O)c(C(N)=O)c1 (stereo not given) [Labetalol hydrochloride]	inactive: -0.167
COC(=O)Nc1nc2cc(C(=O)c3ccccc3)ccc2[nH]1 [Mebendazole]	inactive: 0.926
CC1(C)S[C@@H]2[C@H](NC(=O)[C@H](NC(=O)N3CCNC3=O)c3ccccc3)C(=O)N2[C@H]1C(=O)O [Azlocillin sodium salt]	inactive: 2.49
Cc1cc2c(cc1S(N)(=O)=O)S(=O)(=O)CCC2 [Meticrane]	inactive: 1.3
Clc1cnccn1 [2-Chloropyrazine]	inactive: 1.04
C[C@]1(OC(=O)/C=C/c2ccccc2)C[C@@H](O)[C@]2(O)C=CO[C@@H](O[C@@H]3O[C@H](CO)[C@@H](O)[C@H](O)[C@H]3O)[C@@H]21 [Harpagoside]	inactive: 0.695
COC(=O)[C@H]1[C@H]2C[C@H]3c4[nH]c5ccccc5c4CCN3C[C@@H]2CC[C@@H]1O [Corynanthine hydrochloride]	inactive: 2.36
CSc1ccc2c(c1)C(N1CCN(C)CC1)Cc1ccccc1S2 (stereo not given) [Methiothepin maleate]	inactive: 1.65
Cc1cc(C(C)(C)C)c(O)c(C)c1CC1=NCCN1 [Oxymetazoline hydrochloride]	inactive: 1.21
CN(C)CCCN1c2ccccc2Sc2ccccc21 [Promazine hydrochloride]	inactive: 1.99
NS(=O)(=O)c1cc(C(=O)O)cc(N2CCCC2)c1Oc1ccccc1 [Piretanide]	inactive: 1.18
C[N+]1(C)C[C@H](O)C[C@H]1C(=O)[O-] [Betonicine]	inactive: 2.06
COc1ccc([C@@H]2CC(=O)c3c(O)cc(O[C@@H]4O[C@H](CO[C@@H]5O[C@@H](C)[C@H](O)[C@@H](O)[C@H]5O)[C@@H](O)[C@H](O)[C@H]4O)cc3O2)cc1O [Hesperidin]	inactive: 1.07
CCN(CC)C(=S)SSC(=S)N(CC)CC [Disulfiram]	inactive: 0.755

SMILES	cell-surface Lgr5 expression
C/C(=C(\CCOP(=O)(O)O)SC(=O)c1ccccc1)N(C=O)Cc1cnc(C)nc1N [Benfotiamine]	active: 3.35
O=c1cc(-c2ccccc2)oc2cc(O)cc(O)c12 [Chrysin]	inactive: 1.06
C[C@]12C[C@H](O)[C@H]3[C@@H](CCC4=CC(=O)CC[C@@]43C)[C@@H]1CC[C@@H]2C(=O)CO [Corticosterone]	inactive: 2.49
O=C1CN(/N=C/c2ccc(-c3ccc([N+](=O)[O-])cc3)o2)C(=O)N1 [Dantrolene sodium salt]	inactive: 1.18
CCOC(=O)n1ccn(C)c1=S [Carbimazole]	active: 2.69
CC1(C)S[C@@H]2[C@H](NC(=O)[C@H](C(=O)O)c3ccsc3)C(=O)N2[C@H]1C(=O)O [Ticarcillin sodium]	inactive: 1.13
Cc1cc(NS(=O)(=O)c2ccc(N)cc2)no1 [Sulfamethoxazole]	inactive: 2.1
CN[C@@H]1[C@@H](O)[C@@H](O[C@@H]2[C@@H](O)[C@H](O[C@H]3OC(CN)=CC[C@H]3N)[C@@H](N)C[C@H]2N)OC[C@]1(C)O [Sisomicin sulfate]	inactive: 1.83
Cc1ccccc1OCC(O)CO (stereo not given) [Mephenesin]	inactive: 1.83
O=C1CN(/N=C/c2ccc([N+](=O)[O-])o2)C(=O)N1 [Nitrofurantoin]	inactive: 0.807
C[C@H](N)[C@H](O)c1cccc(O)c1 [Metaraminol bitartrate]	inactive: 1.49
CCN(CC)CCOC(=O)C(Cc1cccc2ccccc12)CC1CCCO1 (stereo not given) [Nafronyl oxalate]	inactive: 1.08
CC(C(=O)O)c1cccc(C(=O)c2ccccc2)c1 (stereo not given) [Ketoprofen]	inactive: 1.4
CCCC1O[C@@H]2C[C@H]3[C@@H]4CCC5=CC(=O)C=C[C@]5(C)[C@H]4[C@@H](O)C[C@]3(C)[C@]2(C(=O)CO)O1 (stereo not given in full) [Budesonide]	active: 3.98
COc1ncnc(NS(=O)(=O)c2ccc(N)cc2)c1OC [Sulfadoxine]	inactive: 1.34
CC(=O)OCC(=O)[C@@]1(O)[C@H](C)C[C@H]2[C@@H]3CCC4=CC(=O)C=C[C@]4(C)[C@@]3(F)[C@@H](O)C[C@@]21C [Dexamethasone acetate]	active: 2.75
COc1ccc(C(=O)c2ccccc2)c(O)c1 [Oxybenzone]	inactive: 2
Nc1nc2c(ncn2COCCO)c(=O)[nH]1 [Acyclovir]	inactive: 1.09
CCCCCN(CCCCC)C(=O)C(CCC(=O)O)NC(=O)c1ccc(Cl)c(Cl)c1 (stereo not given) [Lorglumide sodium salt]	inactive: 0.614
CC(C)(C)NC(=O)[C@@H]1C[C@@H]2CCCC[C@@H]2CN1C[C@@H](O)[C@H](Cc1ccccc1)NC(=O)[C@H](CC(N)=O)NC(=O)c1ccc2ccccc2n1 [Saquinavir mesylate]	inactive: 1.57
CCCCN(CCCC)CCC(O)c1cc2c(Cl)cc(Cl)cc2c2cc(C(F)(F)F)ccc12 (stereo not given) [Halofantrine hydrochloride]	inactive: 0.889
CCOc1cc(CC(=O)N[C@@H](CC(C)C)c2ccccc2N2CCCCC2)ccc1C(=O)O [Repaglinide]	inactive: 1.13

SMILES	cell-surface Lgr5 expression
C[C@]12C=CC(=O)C=C1CC[C@H]1[C@@H]3C[C@@H](O)[C@](O)(C(=O)CO)[C@@]3(C)C[C@H](O)[C@@]12F [Triamcinolone]	inactive: 2.44
CC1(C)O[C@@H]2C[C@H]3[C@@H]4CCC5=CC(=O)CC[C@]5(C)[C@@]4(F)[C@@H](O)C[C@]3(C)[C@]2(C(=O)CCl)O1 [Halcinonide]	active: 3.81
C[C@@H](O)[C@H]1C(=O)N2C(C(=O)O)=C(S[C@@H]3CN[C@H](C(=O)N(C)C)C3)[C@H](C)[C@H]12 [Meropenem]	inactive: 1.23
O=C(O)[C@H](O)[C@@H](O)[C@H](O[C@@H]1O[C@H](CO)[C@H](O)[C@H](O)[C@H]1O)[C@H](O)CO [Lactobionic acid]	inactive: 0.361
C[C@@H]1C[C@H]2[C@@H]3C[C@H](F)C4=CC(=O)C=C[C@]4(C)[C@@]3(Cl)[C@@H](O)C[C@]2(C)[C@H]1C(=O)COC(=O)C(C)(C)C [Clocortolone pivalate]	inactive: 2.1
OC(c1cc(C(F)(F)F)nc2c(C(F)(F)F)cccc12)C1CCCCN1 (stereo not given) [Mefloquine hydrochloride]	inactive: 0.205
CNCCCC12CCC(c3ccccc31)c1ccccc12 [Maprotiline hydrochloride]	inactive: 1.54
CN(C)CCCSC(=N)N [Dimaprit dihydrochloride]	inactive: 1.11
Cc1onc(-c2c(F)cccc2Cl)c1C(=O)N[C@@H]1C(=O)N2[C@@H]1SC(C)(C)[C@@H]2C(=O)O [Flucloxacillin sodium]	inactive: 0.718
COc1c(C)c2c(c(O)c1C/C=C(\C)CCC(=O)O)C(=O)OC2 [Mycophenolic acid]	inactive: 1.1
CC(=O)NC(CC(=O)O)C(=O)O (racemic) [Aspartic acid, N-acetyl (R,S)]	inactive: 1.19
NS(=O)(=O)c1cc(Cl)c(Cl)c(S(N)(=O)=O)c1 [Dichlorphenamide]	inactive: 1.52
CCN1CCCC(OC(=O)C(c2ccccc2)c2ccccc2)C1 (stereo not given) [Piperidolate hydrochloride]	inactive: 1.28
CC(C)NC[C@H](O)COc1cccc2ccccc12 [(S)-propranolol hydrochloride]	inactive: 1.08
CC(=O)CCCCn1c(=O)c2c(ncn2C)n(C)c1=O [Pentoxifylline]	inactive: 2.43
CN1C(=O)OC(C)(C)C1=O [Trimethadione]	inactive: 1.84
CN(C/C=C/c1ccccc1)Cc1cccc2ccccc12 [Naftifine hydrochloride]	inactive: 1.88
C[C@@H]1CC[C@@]2(OC1)O[C@H]1C[C@H]3[C@@H]4CC[C@H]5C[C@@H](O)CC[C@]5(C)[C@H]4CC(=O)[C@]3(C)[C@H]1[C@@H]2C [Hecogenin]	inactive: 2.04
CC(C)n1c(/C=C/C(O)CC(O)CC(=O)O)c(-c2ccc(F)cc2)c2ccccc21 (stereo not given) [Fluvastatin sodium salt]	inactive: 1.59
CNC(=O)c1c(I)c(C(=O)NCC(=O)Nc2c(I)c(C(=O)O)c(I)c(C(=O)NCCO)c2I)c(I)c(N(C)C(C)=O)c1I [Ioxaglic acid]	inactive: 1.02
CCCCNc1cc(C(=O)O)cc(S(N)(=O)=O)c1Oc1ccccc1 [Bumetanide]	inactive: 0.733

3 structures from above, sorted by molecular weight, descending:
SMILES	cell-surface Lgr5 expression
CCCCN(CCCC)CCC(O)c1cc2c(Cl)cc(Cl)cc2c2cc(C(F)(F)F)ccc12 (stereo not given) [Halofantrine hydrochloride]	inactive: 0.889
CN(C)CCCN1c2ccccc2Sc2ccccc21 [Promazine hydrochloride]	inactive: 1.99
C[N+](C)(C)CCCCCC[N+](C)(C)C [Hexamethonium dibromide dihydrate]	inactive: 1.32
